This is an account of results in patent US20090215882A1, “LYOPHILIZED SOLID TAXANE COMPOSITION, A PROCESS FOR PREPARING SAID SOLID COMPOSITION, A PHARMACEUTICAL FORMULATION AND A KIT FOR SAID FORMULATION” (ERIOCHEM, S.A., priority 2006, published 2009).

This series in a line: Solubility / dissolution in aqueous solutions without organic solvent. The conditions noted are these: commercially available API, absence of added organic solvents. Type of series: physicochemical. The method, then: The intermediate lyophilized taxane is dissolved in aqueous solutions of polymers or a mixture of said polymers, namely Lutrol™ F68, Solutol™ HS15, povidone K12 PF or K17 PF.

`CC(=O)O[C@H]1C(=O)[C@@]2(C)[C@H]([C@H](OC(=O)c3ccccc3)[C@]3(O)C[C@H](OC(=O)[C@H](O)[C@@H](NC(=O)c4ccccc4)c4ccccc4)C(C)=C1C3(C)C)[C@]1(OC(C)=O)CO[C@@H]1C[C@@H]2O` [paclitaxel]: the “solubility in aqueous solutions” value is on record as “not soluble”.
